Laboratory results as given in patent US20240199757A1.
Residue numbers refer to the chain shown, from its start. No constants are given. Whether binding was seen depends on the method and setting. Some results given as binding are weak or reduced against the parent protein; the word gives no strength. Blank lines part the entries; values can stand above or below the binder they belong to.

Key:
[1] = molecular target: T1, Full-length cynomolgus NT5E (recombinant) (cynomolgus); test: ELISA
T1 sequence: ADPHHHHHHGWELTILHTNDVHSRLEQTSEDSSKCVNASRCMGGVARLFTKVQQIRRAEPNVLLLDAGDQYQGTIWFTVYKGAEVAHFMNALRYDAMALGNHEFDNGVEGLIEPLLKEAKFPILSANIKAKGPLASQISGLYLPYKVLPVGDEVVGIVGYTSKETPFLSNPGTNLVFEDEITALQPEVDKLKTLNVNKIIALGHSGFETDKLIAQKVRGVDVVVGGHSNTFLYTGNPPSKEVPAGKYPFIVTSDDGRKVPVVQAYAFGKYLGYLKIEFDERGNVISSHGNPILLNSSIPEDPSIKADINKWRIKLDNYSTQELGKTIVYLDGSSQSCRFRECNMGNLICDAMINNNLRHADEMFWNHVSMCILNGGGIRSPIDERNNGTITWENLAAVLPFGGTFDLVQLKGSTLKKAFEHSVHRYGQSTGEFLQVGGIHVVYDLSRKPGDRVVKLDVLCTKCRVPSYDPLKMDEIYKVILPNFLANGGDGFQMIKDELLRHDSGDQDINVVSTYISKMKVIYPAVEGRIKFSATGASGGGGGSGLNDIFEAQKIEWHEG

[2] = molecular target: T2, Full-length human NT5E (recombinant, in-house) (human) (UniProt P21589); test: ELISA
T2 sequence: T1 sequence with T209M, M363T, I476V

[3] = molecular target: T3, Full-length murine NT5E (recombinant) (murine) (UniProt Q61503); test: ELISA
T3 sequence: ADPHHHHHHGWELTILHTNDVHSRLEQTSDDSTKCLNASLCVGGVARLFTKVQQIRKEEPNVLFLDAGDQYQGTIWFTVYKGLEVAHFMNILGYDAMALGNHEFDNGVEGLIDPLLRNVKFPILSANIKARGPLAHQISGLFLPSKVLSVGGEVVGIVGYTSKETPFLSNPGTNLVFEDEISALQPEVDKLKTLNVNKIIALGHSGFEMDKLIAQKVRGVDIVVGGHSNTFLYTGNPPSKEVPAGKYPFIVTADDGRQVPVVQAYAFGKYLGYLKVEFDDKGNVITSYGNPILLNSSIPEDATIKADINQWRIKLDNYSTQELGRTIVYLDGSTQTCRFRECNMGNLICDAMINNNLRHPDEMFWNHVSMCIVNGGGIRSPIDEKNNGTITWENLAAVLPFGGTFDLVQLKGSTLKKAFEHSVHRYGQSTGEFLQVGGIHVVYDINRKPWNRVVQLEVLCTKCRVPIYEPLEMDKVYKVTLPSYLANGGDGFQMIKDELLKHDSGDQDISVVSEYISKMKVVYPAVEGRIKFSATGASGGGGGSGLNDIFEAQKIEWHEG

[4] = molecular target: T4, murine NT5E expressed on 4T1 cells (murine) (UniProt Q61503); test: flow cytometry on 4T1 cells, ATP-free
T4 sequence (looked up): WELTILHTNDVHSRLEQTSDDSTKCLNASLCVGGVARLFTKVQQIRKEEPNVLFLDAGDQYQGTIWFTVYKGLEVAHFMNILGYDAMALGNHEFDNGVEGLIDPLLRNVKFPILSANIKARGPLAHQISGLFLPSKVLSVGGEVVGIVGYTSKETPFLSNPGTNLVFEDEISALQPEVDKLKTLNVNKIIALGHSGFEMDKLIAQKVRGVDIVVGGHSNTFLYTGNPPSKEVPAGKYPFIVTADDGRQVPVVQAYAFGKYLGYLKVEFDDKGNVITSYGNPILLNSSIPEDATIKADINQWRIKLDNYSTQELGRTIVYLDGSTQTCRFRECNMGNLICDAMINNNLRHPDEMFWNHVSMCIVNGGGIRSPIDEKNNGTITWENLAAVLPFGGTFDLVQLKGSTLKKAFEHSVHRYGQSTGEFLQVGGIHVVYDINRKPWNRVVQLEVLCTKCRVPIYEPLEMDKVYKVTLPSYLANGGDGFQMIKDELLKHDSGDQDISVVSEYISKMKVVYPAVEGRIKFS

[5] = molecular target: T3, Full-length murine NT5E (recombinant) (murine); test: ELISA on immobilized murine NT5E, no ATP
[6] = molecular target: T5, human NT5E expressed on MDA-MB-231 cells (human) (UniProt P21589); test: flow cytometry on MDA-MB-231 cells, ATP-free
T5 sequence (looked up): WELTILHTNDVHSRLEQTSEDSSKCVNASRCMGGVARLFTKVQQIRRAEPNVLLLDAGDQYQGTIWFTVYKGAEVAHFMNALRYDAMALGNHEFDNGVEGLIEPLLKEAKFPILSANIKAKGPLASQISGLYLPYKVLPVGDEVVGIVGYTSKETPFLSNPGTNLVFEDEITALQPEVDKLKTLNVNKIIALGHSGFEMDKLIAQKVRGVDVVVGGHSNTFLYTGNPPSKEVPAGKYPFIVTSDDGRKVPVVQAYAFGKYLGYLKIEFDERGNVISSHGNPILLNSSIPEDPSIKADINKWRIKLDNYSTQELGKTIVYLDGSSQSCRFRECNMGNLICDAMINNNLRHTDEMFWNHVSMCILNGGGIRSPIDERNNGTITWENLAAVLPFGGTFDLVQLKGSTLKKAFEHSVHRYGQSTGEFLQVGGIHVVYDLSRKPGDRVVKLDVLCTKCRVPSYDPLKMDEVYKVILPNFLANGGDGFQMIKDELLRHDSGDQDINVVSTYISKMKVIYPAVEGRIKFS

[7] = molecular target: T5, human NT5E expressed on MDA-MB-231 cells (human); test: flow cytometry on MDA-MB-231 cells, ATP-free vs 1 mM ATP
[8] = molecular target: T4, murine NT5E expressed on 4T1 cells (murine); test: flow cytometry on 4T1 cells, single IgG concentration 100 nM, +ATP
[9] = molecular target: T4, murine NT5E expressed on 4T1 cells (murine); test: flow cytometry on 4T1 cells, single IgG concentration 100 nM, -ATP

- binding [1]: binds
- binding [2]: binds
- binding [3]: binds
- binding [4]: binds
- binding [5]: binds
- binding [6]: binds
- binding [7]: binds
B1: 1789 IgG (antibody, V domains shown)
VH: EVQLVESGGGLVQPGGSLRLSCAASGFNVSYSSIHWVRQAPGKGLEWVASISSSSGYTYYADSVKGRFTISADTSKNTAYLQMNSLRAEDTAVYYCARNYWGWYPFYYFAFDYWGQGTLVTVSS
VL: DIQMTQSPSSLSASVGDRVTITCRASQSVSSAVAWYQQKPGKAPKLLIYSASSLYSGVPSRFSGSRSGTDFTLTISSLQPEDFATYYCQQGWDYPITFGQGTKVEIKR

- binding [8]: binds
- binding [9]: binds
B2: 1780 IgG (antibody, V domains shown)
VH: EVQLVESGGGLVQPGGSLRLSCAASGFNFYSYSIHWVRQAPGKGLEWVASISSSSGYTYYADSVKGRFTISADTSKNTAYLQMNSLRAEDTAVYYCARYSWWGWHMEGWWGYMNAFDYWGQGTLVTVSS
VL: B1 VL with G91A, W92H, D93P, Y94K
